In PMC6326162:
No constants are given. Whether binding was seen depends on the method and setting. In cells and extracts the contact can be indirect. Some results given as binding are weak or reduced against the parent protein; the word gives no strength. Sequences can lack the tags named with a protein.

Amino acid sequences for entries named in this document (tags omitted).
UniProt P59017: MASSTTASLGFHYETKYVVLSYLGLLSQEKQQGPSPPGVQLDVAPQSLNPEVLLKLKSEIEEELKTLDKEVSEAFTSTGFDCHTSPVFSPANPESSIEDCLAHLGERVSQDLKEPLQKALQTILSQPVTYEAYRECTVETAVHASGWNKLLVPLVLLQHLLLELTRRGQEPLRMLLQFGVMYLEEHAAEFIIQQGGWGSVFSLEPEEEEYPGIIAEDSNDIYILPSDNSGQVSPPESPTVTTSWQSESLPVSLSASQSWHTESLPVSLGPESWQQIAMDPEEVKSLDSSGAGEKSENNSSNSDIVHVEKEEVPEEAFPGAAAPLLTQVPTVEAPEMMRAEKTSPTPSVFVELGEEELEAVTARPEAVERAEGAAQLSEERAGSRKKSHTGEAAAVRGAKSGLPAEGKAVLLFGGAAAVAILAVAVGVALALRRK

How the values were obtained:
[1] = biological target: HA-Bcl2-L-13 (N-terminal hemagglutinin-tagged mouse Bcl2-like protein 13) (mouse) (UniProt P59017); assay: co-IP; HEK293A cells transfected 48 h (for endogenous ULK1 and LC3B: pepstatin A and E64d 10 ug/ml each for 4 h before sampling); lysis buffer 50 mM Tris-HCl, 50 mM NaCl, 1 mM EDTA, 0.3% CHAPS, pH 7.4; anti-HA antibody with protein A magnetic beads, 4°C, 2 h; precipitates blotted for ULK1, LC3B or FLAG
[2] = biological target: HA-Bcl2-L-13 (N-terminal hemagglutinin-tagged mouse Bcl2-like protein 13) (mouse) (UniProt P59017); assay: proximity ligation; HEK293A cells transfected with HA-Bcl2-L-13 or empty vector and FLAG-ULK1 or its mutants, fixed after 48 hr; anti-HA and anti-FLAG antibodies, Duolink; dots per cell, empty-vector values subtracted

| Binder | binding [1] | binding [2] |
| --- | --- | --- |
| FLAG-ULK1 wild type (mouse ULK1, p3xFLAG-CMV14-mULK1) (protein, UniProt O70405 1-1051) MEPGRGGVETVGKFEFSRKDLIGHGAFAVVFKGRHREKHDLEVAVKCINKKNLAKSQTLLGKEIKILKELKHENIVALYDFQEMANSVYLVMEYCNGGDLADYLHTMRTLSEDTVRLFLQQIAGAMRLLHSKGIIHRDLKPQNILLSNPGGRRANPSNIRVKIADFGFARYLQSNMMAATLCGSPMYMAPEVIMSQHYDGKADLWSIGTIVYQCLTGKAPFQASSPQDLRLFYEKNKTLVPAIPRETSAPLRQLLLALLQRNHKDRMDFDEFFHHPFLDASTPIKKSPPVPVPSYPSSGSGSSSSSSSASHLASPPSLGEMPQLQKTLTSPADAAGFLQGSRDSGGSSKDSCDTDDFVMVPAQFPGDLVAEAASAKPPPDSLLCSGSSLVASAGLESHGRTPSPSPTCSSSPSPSGRPGPFSSNRYGASVPIPVPTQVHNYQRIEQNLQSPTQQQTARSSAIRRSGSTTPLGFGRASPSPPSHTDGAMLARKLSLGGGRPYTPSPQVGTIPERPSWSRVPSPQGADVRVGRSPRPGSSVPEHSPRTTGLGCRLHSAPNLSDFHVVRPKLPKPPTDPLGATFSPPQTSAPQPCPGLQSCRPLRGSPKLPDFLQRSPLPPILGSPTKAGPSFDFPKTPSSQNLLTLLARQGVVMTPPRNRTLPDLSEASPFHGQQLGSGLRPAEDTRGPFGRSFSTSRITDLLLKAAFGTQASDSGSTDSLQEKPMEIAPSAGFGGTLHPGARGGGASSPAPVVFTVGSPPSGATPPQSTRTRMFSVGSSSSLGSTGSSSARHLVPGACGEAPELSAPGHCCSLADPLAANLEGAVTFEAPDLPEETLMEQEHTETLHSLRFTLAFAQQVLEIAALKGSASEAAGGPEYQLQESVVADQISQLSREWGFAEQLVLYLKVAELLSSGLQTAIDQIRAGKLCLSSTVKQVVRRLNELYKASVVSCQGLSLRLQRFFLDKQRLLDGIHGVTAERLILSHAVQMVQSAALDEMFQHREGCVPRYHKALLLLEGLQHTLTDQADIENIAKCKLCIERRLSALLSGVYA | binds | binds |
| FLAG-ULK1 K46N (kinase-dead mutant of mouse ULK1) (protein, UniProt O70405 1-1051) MEPGRGGVETVGKFEFSRKDLIGHGAFAVVFKGRHREKHDLEVAVNCINKKNLAKSQTLLGKEIKILKELKHENIVALYDFQEMANSVYLVMEYCNGGDLADYLHTMRTLSEDTVRLFLQQIAGAMRLLHSKGIIHRDLKPQNILLSNPGGRRANPSNIRVKIADFGFARYLQSNMMAATLCGSPMYMAPEVIMSQHYDGKADLWSIGTIVYQCLTGKAPFQASSPQDLRLFYEKNKTLVPAIPRETSAPLRQLLLALLQRNHKDRMDFDEFFHHPFLDASTPIKKSPPVPVPSYPSSGSGSSSSSSSASHLASPPSLGEMPQLQKTLTSPADAAGFLQGSRDSGGSSKDSCDTDDFVMVPAQFPGDLVAEAASAKPPPDSLLCSGSSLVASAGLESHGRTPSPSPTCSSSPSPSGRPGPFSSNRYGASVPIPVPTQVHNYQRIEQNLQSPTQQQTARSSAIRRSGSTTPLGFGRASPSPPSHTDGAMLARKLSLGGGRPYTPSPQVGTIPERPSWSRVPSPQGADVRVGRSPRPGSSVPEHSPRTTGLGCRLHSAPNLSDFHVVRPKLPKPPTDPLGATFSPPQTSAPQPCPGLQSCRPLRGSPKLPDFLQRSPLPPILGSPTKAGPSFDFPKTPSSQNLLTLLARQGVVMTPPRNRTLPDLSEASPFHGQQLGSGLRPAEDTRGPFGRSFSTSRITDLLLKAAFGTQASDSGSTDSLQEKPMEIAPSAGFGGTLHPGARGGGASSPAPVVFTVGSPPSGATPPQSTRTRMFSVGSSSSLGSTGSSSARHLVPGACGEAPELSAPGHCCSLADPLAANLEGAVTFEAPDLPEETLMEQEHTETLHSLRFTLAFAQQVLEIAALKGSASEAAGGPEYQLQESVVADQISQLSREWGFAEQLVLYLKVAELLSSGLQTAIDQIRAGKLCLSSTVKQVVRRLNELYKASVVSCQGLSLRLQRFFLDKQRLLDGIHGVTAERLILSHAVQMVQSAALDEMFQHREGCVPRYHKALLLLEGLQHTLTDQADIENIAKCKLCIERRLSALLSGVYA | binds | binds |
| FLAG-ULK1 F357A/V360A (LIR motif mutant of mouse ULK1) (protein, UniProt O70405 1-1051) MEPGRGGVETVGKFEFSRKDLIGHGAFAVVFKGRHREKHDLEVAVKCINKKNLAKSQTLLGKEIKILKELKHENIVALYDFQEMANSVYLVMEYCNGGDLADYLHTMRTLSEDTVRLFLQQIAGAMRLLHSKGIIHRDLKPQNILLSNPGGRRANPSNIRVKIADFGFARYLQSNMMAATLCGSPMYMAPEVIMSQHYDGKADLWSIGTIVYQCLTGKAPFQASSPQDLRLFYEKNKTLVPAIPRETSAPLRQLLLALLQRNHKDRMDFDEFFHHPFLDASTPIKKSPPVPVPSYPSSGSGSSSSSSSASHLASPPSLGEMPQLQKTLTSPADAAGFLQGSRDSGGSSKDSCDTDDAVMAPAQFPGDLVAEAASAKPPPDSLLCSGSSLVASAGLESHGRTPSPSPTCSSSPSPSGRPGPFSSNRYGASVPIPVPTQVHNYQRIEQNLQSPTQQQTARSSAIRRSGSTTPLGFGRASPSPPSHTDGAMLARKLSLGGGRPYTPSPQVGTIPERPSWSRVPSPQGADVRVGRSPRPGSSVPEHSPRTTGLGCRLHSAPNLSDFHVVRPKLPKPPTDPLGATFSPPQTSAPQPCPGLQSCRPLRGSPKLPDFLQRSPLPPILGSPTKAGPSFDFPKTPSSQNLLTLLARQGVVMTPPRNRTLPDLSEASPFHGQQLGSGLRPAEDTRGPFGRSFSTSRITDLLLKAAFGTQASDSGSTDSLQEKPMEIAPSAGFGGTLHPGARGGGASSPAPVVFTVGSPPSGATPPQSTRTRMFSVGSSSSLGSTGSSSARHLVPGACGEAPELSAPGHCCSLADPLAANLEGAVTFEAPDLPEETLMEQEHTETLHSLRFTLAFAQQVLEIAALKGSASEAAGGPEYQLQESVVADQISQLSREWGFAEQLVLYLKVAELLSSGLQTAIDQIRAGKLCLSSTVKQVVRRLNELYKASVVSCQGLSLRLQRFFLDKQRLLDGIHGVTAERLILSHAVQMVQSAALDEMFQHREGCVPRYHKALLLLEGLQHTLTDQADIENIAKCKLCIERRLSALLSGVYA | binds | binds |
